Assay results: patent US20080214455A1, “Novel Chemical Compounds” (SMITHKLINE BEECHAM CORPORATION, priority 2005, published 2008)
Some of these results come from one statement about several compounds together.

Biological target: T1, hYAK3 (Homo sapiens, UniProt O43781)
T1 construct: GST (N); His6 (C); made in house; host or cells: baculovirus expression system in Sf9 cells
T1 sequence (O43781 142-526): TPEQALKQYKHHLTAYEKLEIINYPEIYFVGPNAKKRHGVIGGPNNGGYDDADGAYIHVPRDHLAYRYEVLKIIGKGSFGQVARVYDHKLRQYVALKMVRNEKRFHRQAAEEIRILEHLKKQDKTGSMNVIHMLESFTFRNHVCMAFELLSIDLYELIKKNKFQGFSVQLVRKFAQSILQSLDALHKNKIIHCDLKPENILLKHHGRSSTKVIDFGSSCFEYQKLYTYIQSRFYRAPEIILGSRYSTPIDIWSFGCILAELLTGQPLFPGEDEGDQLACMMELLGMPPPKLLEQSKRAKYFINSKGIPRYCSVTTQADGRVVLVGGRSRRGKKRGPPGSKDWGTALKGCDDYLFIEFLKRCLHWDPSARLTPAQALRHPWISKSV
Test: YAK3 Scintillation Proximity Assay using Ser164 of myelin basic protein as the phosphoacceptor (kinase assay of purified hYAK3)
Type: biochemical
Conditions: purified GST-hYak3-His6; 1 μM ATP; 4 μM Ser164 peptide; 2 hours at room temperature
Procedure: Substrate phosphorylation assays were carried out as follows:
YAK3 Scintillation Proximity Assays Using Ser164 of Myelin Basic Protein as the Phosphoacceptor
The source of Ser164 substrate peptide The biotinylated Ser164, S164A peptide(LGGRDSRAGS*PMARRKK-ahx-Biotin-Amide), sequence derived from the C-terminus of bovine myelin basic protein (MBP) with Ser162 substituted as Ala 162, was purchased from California Peptide Research Inc. (Napa, Calif.), and its purity was determined by HPLC. Phosphorylation occurs at position 164 (marked S* above). The calculated molecular mass of the peptide is 2166 dalton. Solid sample was dissolved at 10 mM in DMSO, aliquoted, and stored at −20 C until use.
hYAK3: Glutathione-S-Transferase (GST)-hYak3-His6 containing amino acid residues 142-526 of human YAK3 (aa 142-526 of SEQ ID NO 2. in U.S. Pat. No. 6,323,318) was purified from baculovirus expression system in Sf9 cells using Glutathione Sepharose 4B column chromatography followed by Ni-NTA-Agarose column chromatography. Purity greater than 65% typically is achieved. Samples, in 50 mM Tris, 150 mM NaCl, 10% glycerol, 0.1% Triton, 250 mM imidazole, 10 mM-mercapto ethanol, pH 8.0 were stored at −80 C until use.
Kinase assay of purified hYAK3: Assays were performed in 96 well (Costar, Catalog No.3789) or 384 well plates (Costar, Catalog No.3705). Reaction (in 10, 20, 25, or 40 μl volume) mix contained in final concentrations 25 mM Hepes buffer, pH 7.4; 10 mM MgCl2; 10 mM-mercapto ethanol; 0.0025% Tween-20; 1 μM ATP, 0.1 μCi of [γ-^33P]ATP; purified hYAK3 (3.6-14 ng/assay; 4 nM final); and 4 μM Ser164 peptide. Compounds, titrated in DMSO, were evaluated at concentrations ranging from 50 μM to 0.2 nM. […] Reactions were incubated for 2 hours at room temperature and were stopped by addition of Streptavidin Scintillation Proximity beads (Amersham Pharmacia Biotech, Catalog No. RPNQ 0007 or Amersham Biosciences Catalog no. RPQ0626) in PBS, pH 7.4, 150 mM EDTA, and 0.1% Triton X-100. Under the assay conditions defined above, the Km(apparent) for ATP is determined to be 7.2+/−2.4 μM.
The data for compound dose responses were plotted as % Inhibition, calculated with the data reduction formula 100*(1-[(U1-C2)/(C1-C2)]), versus concentration of compound, where U is the unknown value, C1 is the average control value obtained for DMSO, and C2 is the average control value obtained for 0.05M EDTA. Data were fitted to the curve described by: y=((Vmax* x)/(K+x)) where Vmax is the upper asymptote and K is the IC50. The results for each compound were recorded as pIC50 calculated as follows: pIC50=−Log 10(K).

| Structure (SMILES) | pIC50 |
| --- | --- |
| O=C1N=C(Nc2c(Cl)cccc2Cl)S/C1=C\c1ccc2ncc(=O)[nH]c2c1 [Example 2, 7-{(Z)-[2-[(2,6-Dichlorophenyl)amino]-4-oxo-1,3-thiazol-5(4H)-ylidene]methyl}-2(1H)-quinoxalinone] | > 7 |
| CNc1ccc2cc(/C=C3\SC(Nc4c(Cl)cccc4Cl)=NC3=O)ccc2n1 [Example 3, (5Z)-2-[(2,6-Dichlorophenyl)amino]-5-{[2-(methylamino)-6-quinolinyl]methylidene}-1,3-thiazol-4(5H)-one] | > 7 |
| CN(C)c1ccnc2ccc(/C=C3\SC(Nc4c(Cl)cccc4Cl)=NC3=O)cc12 [Example 4, (5Z)-2-[(2,6-Dichlorophenyl)amino]-5-{[4-(dimethylamino)-6-quinolinyl]methylidene}-1,3-thiazol-4(5H)-one] | > 7 |
| CN1CCN(c2ccnc3ccc(/C=C4\SC(Nc5c(Cl)cccc5Cl)=NC4=O)cc23)CC1 [Example 5, (5Z)-2-[(2,6-Dichlorophenyl)amino]-5-{[4-(4-methyl-1-piperazinyl)-6-quinolinyl]methylidene}-1,3-thiazol-4(5H)-one] | > 7 |
